This is one part of the list.
Assays:
Assay in all cases: glycan array binding signal (z-score within array); higher = stronger binding
Conditions in all cases: glycan notation: IUPAC condensed, linker removed
[1] = molecular target: Man(a1-2)Man(a1-3)[Man(a1-2)Man(a1-6)]Man(a1-6)[Man(a1-2)Man(a1-2)Man(a1-3)]Man
In short: (§1)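 The binding signal is a Z-score computed within each array and averaged over linkers. Arrays of the same protein sequence at different concentrations or buffers were also averaged together. Data originate from 3228 arrays in the Consortium for Functional Glycomics database, kept only where the protein sequence was available.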

[2] = molecular target: Man(a1-2)Man(a1-3)[Man(a1-2)Man(a1-6)]Man(a1-6)[Man(a1-2)Man(a1-2)Man(a1-3)]Man(b1-4)GlcNAc(b1-4)GlcNAc
In short: as §1

[3] = molecular target: Man(a1-2)Man(a1-3)[Man(a1-6)]Man(a1-6)[Man(a1-2)Man(a1-3)]Man(b1-4)GlcNAc(b1-4)GlcNAc
In short: as §1

[4] = molecular target: Man(a1-2)Man(a1-6)[Man(a1-3)]Man(a1-6)[Man(a1-2)Man(a1-2)Man(a1-3)]Man
In short: as §1

[5] = molecular target: Man(a1-2)Man(a1-6)[Man(a1-3)]Man(a1-6)[Man(a1-2)Man(a1-2)Man(a1-3)]Man(b1-4)GlcNAc(b1-4)GlcNAc
In short: as §1

Man(a1-3)[Man(a1-6)]Man = molecular target: Man(a1-3)[Man(a1-6)]Man
In short: as §1

[6] = molecular target: Man(a1-3)[Man(a1-6)]Man(a1-6)[Man(a1-2)Man(a1-3)]Man(b1-4)GlcNAc(b1-4)GlcNAc
In short: as §1

[7] = molecular target: Man(a1-3)[Man(a1-6)]Man(a1-6)[Man(a1-3)]Man
In short: as §1

[8] = molecular target: Man(a1-3)[Man(a1-6)]Man(a1-6)[Man(a1-3)]Man(b1-4)GlcNAc(b1-4)GlcNAc
In short: as §1

[9] = molecular target: Man(a1-3)[Man(a1-6)]Man(b1-4)GlcNAc(b1-4)GlcNAc
In short: as §1

[10] = molecular target: Man(a1-3)[Man(a1-6)]Man(b1-4)GlcNAc(b1-4)[Fuc(a1-6)]GlcNAc
In short: as §1

Man(a1-6)Man = molecular target: Man(a1-6)Man
In short: as §1

Man(b1-4)GlcNAc = molecular target: Man(b1-4)GlcNAc
In short: as §1

MurNAc(b1-4)GlcNAc = molecular target: MurNAc(b1-4)GlcNAc
In short: as §1

Neu5Ac(a2-3)Gal = molecular target: Neu5Ac(a2-3)Gal
In short: as §1

[11] = molecular target: Neu5Ac(a2-3)Gal(b1-3)GalNAc
In short: as §1

[12] = molecular target: Neu5Ac(a2-3)Gal(b1-3)GalNAc(b1-3)Gal(a1-4)Gal(b1-4)Glc
In short: as §1

[13] = molecular target: Neu5Ac(a2-3)Gal(b1-3)GalNAc(b1-4)Gal(b1-4)Glc
In short: as §1

[14] = molecular target: Neu5Ac(a2-3)Gal(b1-3)GalNAc(b1-4)[Neu5Ac(a2-3)]Gal(b1-4)Glc
In short: as §1

[15] = molecular target: Neu5Ac(a2-3)Gal(b1-3)GalNAc(b1-4)[Neu5Ac(a2-8)Neu5Ac(a2-3)]Gal(b1-4)Glc
In short: as §1

[16] = molecular target: Neu5Ac(a2-3)Gal(b1-3)GalNAc6S
In short: as §1

[17] = molecular target: Neu5Ac(a2-3)Gal(b1-3)GlcNAc
In short: as §1

[18] = molecular target: Neu5Ac(a2-3)Gal(b1-3)GlcNAc(b1-2)Man
In short: as §1

[19] = molecular target: Neu5Ac(a2-3)Gal(b1-3)GlcNAc(b1-2)Man(a1-3)[GlcNAc(b1-4)][Neu5Ac(a2-3)Gal(b1-3)GlcNAc(b1-2)Man(a1-6)]Man(b1-4)GlcNAc(b1-4)GlcNAc
In short: as §1

[20] = molecular target: Neu5Ac(a2-3)Gal(b1-3)GlcNAc(b1-2)Man(a1-3)[Neu5Ac(a2-3)Gal(b1-3)GlcNAc(b1-2)Man(a1-6)]Man(b1-4)GlcNAc(b1-4)GlcNAc
In short: as §1

[21] = molecular target: Neu5Ac(a2-3)Gal(b1-3)GlcNAc(b1-2)[Neu5Ac(a2-3)Gal(b1-3)GlcNAc(b1-4)]Man(a1-6)[Neu5Ac(a2-3)Gal(b1-3)GlcNAc(b1-2)Man(a1-3)]Man(b1-4)GlcNAc(b1-4)GlcNAc
In short: as §1

[22] = molecular target: Neu5Ac(a2-3)Gal(b1-3)GlcNAc(b1-3)Gal(b1-3)GlcNAc
In short: as §1

[23] = molecular target: Neu5Ac(a2-3)Gal(b1-3)GlcNAc(b1-3)Gal(b1-4)GlcNAc
In short: as §1

[24] = molecular target: Neu5Ac(a2-3)Gal(b1-3)GlcNAc(b1-3)GalNAc
In short: as §1

[25] = molecular target: Neu5Ac(a2-3)Gal(b1-3)GlcNAc(b1-6)GalNAc
In short: as §1

[26] = molecular target: Neu5Ac(a2-3)Gal(b1-3)GlcNAc6S
In short: as §1

[27] = molecular target: Neu5Ac(a2-3)Gal(b1-3)[Fuc(a1-4)]GlcNAc
In short: as §1

[28] = molecular target: Neu5Ac(a2-3)Gal(b1-3)[Fuc(a1-4)]GlcNAc(b1-3)Gal(b1-3)[Fuc(a1-4)]GlcNAc
In short: as §1

[29] = molecular target: Neu5Ac(a2-3)Gal(b1-3)[Fuc(a1-4)]GlcNAc(b1-3)Gal(b1-4)[Fuc(a1-3)]GlcNAc
In short: as §1

[30] = molecular target: Neu5Ac(a2-3)Gal(b1-3)[GlcNAc(b1-6)]GalNAc
In short: as §1

[31] = molecular target: Neu5Ac(a2-3)Gal(b1-3)[Neu5Ac(a2-6)]GalNAc
In short: as §1

[32] = molecular target: Neu5Ac(a2-3)Gal(b1-3)[Neu5Ac(a2-6)]GlcNAc(b1-3)[Fuc(a1-3)[Gal(b1-4)]GlcNAc(b1-6)]Gal(b1-4)Glc
In short: as §1

[33] = molecular target: Neu5Ac(a2-3)Gal(b1-3)]Neu5Ac(a2-3)Gal(b1-4)]GlcNAc
In short: as §1

Neu5Ac(a2-3)Gal(b1-4)Glc = molecular target: Neu5Ac(a2-3)Gal(b1-4)Glc
In short: as §1

[34] = molecular target: Neu5Ac(a2-3)Gal(b1-4)GlcNAc
In short: as §1

[35] = molecular target: Neu5Ac(a2-3)Gal(b1-4)GlcNAc(b1-2)Man
In short: as §1

[36] = molecular target: Neu5Ac(a2-3)Gal(b1-4)GlcNAc(b1-2)Man(a1-3)[GlcNAc(b1-4)][Neu5Ac(a2-3)Gal(b1-4)GlcNAc(b1-2)Man(a1-6)]Man(b1-4)GlcNAc(b1-4)GlcNAc
In short: as §1

[37] = molecular target: Neu5Ac(a2-3)Gal(b1-4)GlcNAc(b1-2)Man(a1-3)[Neu5Ac(a2-3)Gal(b1-4)GlcNAc(b1-2)Man(a1-6)]Man(b1-4)GlcNAc(b1-4)GlcNAc
In short: as §1

[38] = molecular target: Neu5Ac(a2-3)Gal(b1-4)GlcNAc(b1-2)Man(a1-3)[Neu5Ac(a2-3)Gal(b1-4)GlcNAc(b1-2)Man(a1-6)]Man(b1-4)GlcNAc(b1-4)[Fuc(a1-6)]GlcNAc
In short: as §1

[39] = molecular target: Neu5Ac(a2-3)Gal(b1-4)GlcNAc(b1-2)Man(a1-3)[Neu5Ac(a2-6)Gal(b1-4)GlcNAc(b1-2)Man(a1-6)]Man(b1-4)GlcNAc(b1-4)GlcNAc
In short: as §1

B1: MXA PilAct-eGFP (Myxococcus xanthus), Q59589 (protein)
chain: MRVSRFNPRNRGFTLIELMIVVAIIGILAAIAIPNFIKFQARSKQSEAKTNLKALYTAQKSFFSEKDRYSDFANEIGFAPERGNRYGYRVSAAAGDCEVRNAADLPVPAAGVPCISNDSFRFGANSAIDDPTPVVARFVPQGAAGWNTTLGVQPTIADCPNCNFFAGARGNADNEATFDDWVIAGFEGSGQVGPCSEAGNVASGTPYNTRNDVACDGAAQ
- glycan array binding signal (z-score) [1]: -0.555
- glycan array binding signal (z-score) [2]: 0.553
- glycan array binding signal (z-score) [3]: -2
- glycan array binding signal (z-score) [4]: 1.36
- glycan array binding signal (z-score) [5]: -0.088
- glycan array binding signal (z-score) (Man(a1-3)[Man(a1-6)]Man): -0.412
- glycan array binding signal (z-score) [6]: -0.793
- glycan array binding signal (z-score) [7]: -0.26
- glycan array binding signal (z-score) [8]: -0.784
- glycan array binding signal (z-score) [9]: -0.147
- glycan array binding signal (z-score) [10]: -1.3
- glycan array binding signal (z-score) (Man(a1-6)Man): 0.911
- glycan array binding signal (z-score) (Man(b1-4)GlcNAc): -0.86
- glycan array binding signal (z-score) (MurNAc(b1-4)GlcNAc): -0.806
- glycan array binding signal (z-score) (Neu5Ac(a2-3)Gal): 1.14
- glycan array binding signal (z-score) [11]: -0.41
- glycan array binding signal (z-score) [12]: -0.393
- glycan array binding signal (z-score) [13]: -0.379
- glycan array binding signal (z-score) [14]: -0.607
- glycan array binding signal (z-score) [15]: -0.584
- glycan array binding signal (z-score) [16]: -1.44
- glycan array binding signal (z-score) [17]: -0.341
- glycan array binding signal (z-score) [18]: -0.344
- glycan array binding signal (z-score) [19]: -0.92
- glycan array binding signal (z-score) [20]: -0.26
- glycan array binding signal (z-score) [21]: 1.85
- glycan array binding signal (z-score) [22]: 0.225
- glycan array binding signal (z-score) [23]: -0.011
- glycan array binding signal (z-score) [24]: 1.58
- glycan array binding signal (z-score) [25]: -0.507
- glycan array binding signal (z-score) [26]: -1.38
- glycan array binding signal (z-score) [27]: -0.236
- glycan array binding signal (z-score) [28]: 0.226
- glycan array binding signal (z-score) [29]: 1.71
- glycan array binding signal (z-score) [30]: 0.218
- glycan array binding signal (z-score) [31]: 1.32
- glycan array binding signal (z-score) [32]: -0.034
- glycan array binding signal (z-score) [33]: -0.635
- glycan array binding signal (z-score) (Neu5Ac(a2-3)Gal(b1-4)Glc): 0.69
- glycan array binding signal (z-score) [34]: -0.719
- glycan array binding signal (z-score) [35]: 0.721
- glycan array binding signal (z-score) [36]: -0.908
- glycan array binding signal (z-score) [37]: 0.099
- glycan array binding signal (z-score) [38]: 0.081
- glycan array binding signal (z-score) [39]: -0.696
